# Results from publication PMC8406268.
# By UniProt entry, the sequences of proteins in these tests, tags left out.
# UniProt A5IV09: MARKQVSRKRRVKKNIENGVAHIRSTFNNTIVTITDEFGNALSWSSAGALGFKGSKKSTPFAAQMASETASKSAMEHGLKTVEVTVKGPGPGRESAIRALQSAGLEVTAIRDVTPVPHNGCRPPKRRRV
# Results are given in words; binding and its absence hold for the method and conditions named. In cells and extracts the contact can be indirect. Some entries that bind do so weakly or less than the wild type. Where a sequence is shown, tags or fusion partners need not be part of it.
# Target: T1, 3×FLAG-tagged S. aureus RNase R (S. aureus) (UniProt Q2G024)
# T1 sequence (chain, methylated Q538 (found by LC-MS/MS of the immunoprecipitated protein)): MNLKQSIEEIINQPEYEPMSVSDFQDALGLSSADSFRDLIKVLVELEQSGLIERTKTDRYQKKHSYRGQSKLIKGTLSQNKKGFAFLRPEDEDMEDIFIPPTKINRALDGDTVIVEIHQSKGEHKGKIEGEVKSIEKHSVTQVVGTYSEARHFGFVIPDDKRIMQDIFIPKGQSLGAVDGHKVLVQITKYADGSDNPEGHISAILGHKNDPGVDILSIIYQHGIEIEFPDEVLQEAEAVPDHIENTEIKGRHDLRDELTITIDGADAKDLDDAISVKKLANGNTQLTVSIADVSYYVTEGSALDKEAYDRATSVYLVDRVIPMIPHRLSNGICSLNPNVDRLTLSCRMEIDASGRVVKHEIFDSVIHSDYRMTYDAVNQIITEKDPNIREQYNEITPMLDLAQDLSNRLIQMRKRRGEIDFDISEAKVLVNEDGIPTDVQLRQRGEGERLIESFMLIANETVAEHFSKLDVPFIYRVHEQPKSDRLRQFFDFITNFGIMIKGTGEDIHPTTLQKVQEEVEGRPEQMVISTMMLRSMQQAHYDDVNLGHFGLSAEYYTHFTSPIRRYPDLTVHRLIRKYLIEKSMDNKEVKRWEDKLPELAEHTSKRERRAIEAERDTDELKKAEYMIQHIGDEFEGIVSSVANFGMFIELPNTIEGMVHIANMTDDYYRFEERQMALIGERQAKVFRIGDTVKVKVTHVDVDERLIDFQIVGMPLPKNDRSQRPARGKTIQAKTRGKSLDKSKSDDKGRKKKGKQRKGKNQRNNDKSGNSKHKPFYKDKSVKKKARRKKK
# Experiment: co-IP; eluate of the anti-FLAG M2 pulldown of 3×FLAG-Rnr from S. aureus lysate probed by Western blot with anti-S11; untagged control in parallel
substance,measurement,value
30S ribosomal protein S11 (from UniProt A5IV09 1-129),binding,binds
